Assay results reported in paper doi:10.1101/2022.10.08.511390.
No constants are given. Whether binding was seen depends on the method and setting. For some assays here: In cells and extracts the contact can be indirect. Some binding calls cover weakened binding; strength is not graded here.

T1: 2-oxoglutarate dehydrogenase complex subunit E2o (DLST), bovine (bovine (endogenous in bovine heart mitochondria)) (UniProt P11179)
T1 sequence: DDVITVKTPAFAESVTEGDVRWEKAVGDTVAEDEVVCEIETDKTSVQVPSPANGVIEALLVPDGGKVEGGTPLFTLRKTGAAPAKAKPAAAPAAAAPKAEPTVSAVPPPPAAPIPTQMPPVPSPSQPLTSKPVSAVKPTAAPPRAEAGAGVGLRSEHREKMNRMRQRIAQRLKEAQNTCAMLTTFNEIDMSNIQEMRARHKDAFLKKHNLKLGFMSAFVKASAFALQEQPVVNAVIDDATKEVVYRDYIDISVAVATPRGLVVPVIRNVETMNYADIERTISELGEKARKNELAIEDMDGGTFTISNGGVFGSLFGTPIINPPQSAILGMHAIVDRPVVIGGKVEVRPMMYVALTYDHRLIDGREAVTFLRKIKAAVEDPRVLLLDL

T2: 2-oxoglutarate dehydrogenase complex subunit E3 (DLD), bovine (bovine (endogenous in bovine heart mitochondria)) (UniProt F1N206)
T2 sequence: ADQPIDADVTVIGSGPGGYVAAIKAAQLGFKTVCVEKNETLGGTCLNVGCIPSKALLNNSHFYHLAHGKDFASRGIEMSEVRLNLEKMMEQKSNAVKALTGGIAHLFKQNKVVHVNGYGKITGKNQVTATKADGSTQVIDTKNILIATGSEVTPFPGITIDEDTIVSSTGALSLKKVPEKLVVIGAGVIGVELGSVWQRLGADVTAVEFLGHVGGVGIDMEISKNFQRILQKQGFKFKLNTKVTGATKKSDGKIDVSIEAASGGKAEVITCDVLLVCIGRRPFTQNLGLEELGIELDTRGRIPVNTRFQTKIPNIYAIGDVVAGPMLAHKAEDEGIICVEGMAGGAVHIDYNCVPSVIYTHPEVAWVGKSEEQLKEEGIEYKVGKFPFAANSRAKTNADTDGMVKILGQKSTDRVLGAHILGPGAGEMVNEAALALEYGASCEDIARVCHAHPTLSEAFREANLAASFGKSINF

T3: 2-oxoglutarate dehydrogenase complex subunit E2o (DLST), mouse (mouse (endogenous in mouse heart mitochondria)) (UniProt Q9D2G2)
T3 sequence: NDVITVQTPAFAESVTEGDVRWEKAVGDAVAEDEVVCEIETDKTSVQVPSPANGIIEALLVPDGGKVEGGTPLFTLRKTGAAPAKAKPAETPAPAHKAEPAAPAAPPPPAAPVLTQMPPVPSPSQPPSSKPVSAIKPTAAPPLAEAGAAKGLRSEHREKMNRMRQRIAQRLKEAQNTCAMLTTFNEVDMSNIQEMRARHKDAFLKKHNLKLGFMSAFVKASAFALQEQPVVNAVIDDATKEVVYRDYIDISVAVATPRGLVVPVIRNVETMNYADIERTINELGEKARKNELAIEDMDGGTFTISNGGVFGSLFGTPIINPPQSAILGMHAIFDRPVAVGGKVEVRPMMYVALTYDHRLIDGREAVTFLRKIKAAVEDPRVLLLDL

T4: 2-oxoglutarate dehydrogenase complex subunit E3 (DLD), mouse (mouse (endogenous in mouse heart mitochondria)) (UniProt O08749)
T4 sequence: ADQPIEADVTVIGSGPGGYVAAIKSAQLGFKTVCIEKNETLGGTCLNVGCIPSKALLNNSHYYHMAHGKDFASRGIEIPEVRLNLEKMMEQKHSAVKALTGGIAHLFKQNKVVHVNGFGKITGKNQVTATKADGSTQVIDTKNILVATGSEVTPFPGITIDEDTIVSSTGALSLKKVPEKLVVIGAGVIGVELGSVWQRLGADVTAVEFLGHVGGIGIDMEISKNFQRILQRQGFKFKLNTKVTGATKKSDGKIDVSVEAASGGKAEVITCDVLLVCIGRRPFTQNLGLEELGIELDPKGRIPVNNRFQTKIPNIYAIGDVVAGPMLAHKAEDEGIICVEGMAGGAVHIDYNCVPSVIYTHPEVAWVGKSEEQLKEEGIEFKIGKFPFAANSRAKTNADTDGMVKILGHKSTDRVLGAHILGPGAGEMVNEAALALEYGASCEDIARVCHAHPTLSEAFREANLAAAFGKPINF


Key:
[1] = biological target: T1, 2-oxoglutarate dehydrogenase complex subunit E2o (DLST), bovine (bovine (endogenous in bovine heart mitochondria)); test: native gel or EMSA
[2] = biological target: T1, 2-oxoglutarate dehydrogenase complex subunit E2o (DLST), bovine (bovine (endogenous in bovine heart mitochondria)); test: native gel or EMSA; remark: listed apart in the source
[3] = biological target: T2, 2-oxoglutarate dehydrogenase complex subunit E3 (DLD), bovine (bovine (endogenous in bovine heart mitochondria)); test: cross-linking
[4] = biological target: T1, 2-oxoglutarate dehydrogenase complex subunit E2o (DLST), bovine (bovine (endogenous in bovine heart mitochondria)); test: cross-linking
[5] = biological target: T2, 2-oxoglutarate dehydrogenase complex subunit E3 (DLD), bovine (bovine (endogenous in bovine heart mitochondria)); test: native gel or EMSA
[6] = biological target: T1, 2-oxoglutarate dehydrogenase complex subunit E2o (DLST), bovine (bovine (endogenous in bovine heart mitochondria)); test: native gel or EMSA; remark: listed apart in the source
[7] = biological target: T3, 2-oxoglutarate dehydrogenase complex subunit E2o (DLST), mouse (mouse (endogenous in mouse heart mitochondria)); test: cross-linking
[8] = biological target: T4, 2-oxoglutarate dehydrogenase complex subunit E3 (DLD), mouse (mouse (endogenous in mouse heart mitochondria)); test: cross-linking

Binder | binding [1] | binding [2] | binding [3] | binding [4] | binding [5] | binding [6] | binding [7] | binding [8]
2-oxoglutarate dehydrogenase complex subunit E1o (OGDH), bovine (enzyme, UniProt Q148N0 41-1023) TAPVAAEPFLSGTSSNYVEEMYYAWLENPKSVHKSWDIFFRNTNAGAPPGTAYQSPLPLSPGSLSAVARAGPLVEAQPNVDKLVEDHLAVQSLIRAYQIRGHHVAQLDPLGILDADLDSSVPADIISSTDKLGFYGLDESDLDKVFHLPTTTFIGGQESALPLREIIRRLEMAYCQHIGVEFMFINDLEQCQWIRQKFETPGVMQFTNEEKRTLLARLVRSTRFEEFLQRKWSSEKRFGLEGCEVLIPALKTIIDKSSENGVDYVIMGMPHRGRLNVLANVIRKELEQIFCQFDSKLEAADEGSGDVKYHLGMYHRRINRVTDRNITLSLVANPSHLEAADPVVMGKTKAEQFYCGDTEGKKVMSILLHGDAAFAGQGIVYETFHLSDLPSYTTHGTVHVVVNNQIGFTTDPRMARSSPYPTDVARVVNAPIFHVNSDDPEAVMYVCKVAAEWRSTFHKDVVVDLVCYRRNGHNEMDEPMFTQPLMYKQIRKQKPVLQKYAELLVSQGVVNQPEYEEEISKYDKICEEAFARSKDEKILHIKHWLDSPWPGFFTLDGQPRSMTCPSTGLTEDILTHIGNVASSVPVEDFTIHGGLSRILKTRGELVKNRTVDWALAEYMAFGSLLKEGIHIRLSGQDVERGTFSHRHHVLHDQNVDKRTCIPMNHLWPNQAPYTVCNSSLSEYGVLGFELGFAMASPNALVLWEAQFGDFHNTAQCIIDQFICPGQAKWVRQNGIVLLLPHGMEGMGPEHSSARPERFLQMCNDDPDVLPDLKEANFDINQLYDCNWVVVNCSTPGNFFHVLRRQILLPFRKPLIIFTPKSLLRHPEARSNFDEMLPGTHFQRVIPEDGPAAQNPGNVKRLLFCTGKVYYDLTRERKARDMVEQVAITRIEQLSPFPFDLLLQEVQKYPSAELAWCQEEHKNQGYYDYVKPRLRTTISRAKPVWYAGRDPAAAPATGNKKTHLTELQRLLDTAFDLDAFKNFS | binds | binds | no binding | binds | – | – | – | –
MRPS36 (KGD4), bovine (protein, UniProt P82908 1-103) MMGSKMASASRVVQVVKPHTPLIRFPDRRDNPKPNVSEVLRSAGLPSHTSSISQHSKGSKSPDWLMHQGPPDTAEMIKTLPQKYRRKLVSQEEIEFIQRGGPE | binds | binds | binds | binds | binds | – | – | –
2-oxoglutarate dehydrogenase complex subunit E3 (DLD), bovine (enzyme, UniProt F1N206 36-509) ADQPIDADVTVIGSGPGGYVAAIKAAQLGFKTVCVEKNETLGGTCLNVGCIPSKALLNNSHFYHLAHGKDFASRGIEMSEVRLNLEKMMEQKSNAVKALTGGIAHLFKQNKVVHVNGYGKITGKNQVTATKADGSTQVIDTKNILIATGSEVTPFPGITIDEDTIVSSTGALSLKKVPEKLVVIGAGVIGVELGSVWQRLGADVTAVEFLGHVGGVGIDMEISKNFQRILQKQGFKFKLNTKVTGATKKSDGKIDVSIEAASGGKAEVITCDVLLVCIGRRPFTQNLGLEELGIELDTRGRIPVNTRFQTKIPNIYAIGDVVAGPMLAHKAEDEGIICVEGMAGGAVHIDYNCVPSVIYTHPEVAWVGKSEEQLKEEGIEYKVGKFPFAANSRAKTNADTDGMVKILGQKSTDRVLGAHILGPGAGEMVNEAALALEYGASCEDIARVCHAHPTLSEAFREANLAASFGKSINF | – | binds | – | binds | – | binds weakly | – | –
2-oxoglutarate dehydrogenase complex subunit E1o (OGDH), mouse (enzyme, UniProt Q60597 41-1023) SAPVAAEPFLSGTSSNYVEEMYCAWLENPKSVHKSWDIFFRNTNAGAPPGTAYQSPLSLSRSSLATMAHAQSLVEAQPNVDKLVEDHLAVQSLIRAYQIRGHHVAQLDPLGILDADLDSSVPADIISSTDKLGFYGLHESDLDKVFHLPTTTFIGGQEPALPLREIIRRLEMAYCQHIGVEFMFINDLEQCQWIRQKFETPGIMQFTNEEKRTLLARLVRSTRFEEFLQRKWSSEKRFGLEGCEVLIPALKTIIDMSSANGVDYVIMGMPHRGRLNVLANVIRKELEQIFCQFDSKLEAADEGSGDMKYHLGMYHRRINRVTDRNITLSLVANPSHLEAADPVVMGKTKAEQFYCGDTEGKKVMSILLHGDAAFAGQGIVYETFHLSDLPSYTTHGTVHVVVNNQIGFTTDPRMARSSPYPTDVARVVNAPIFHVNSDDPEAVMYVCKVAAEWRNTFHKDVVVDLVCYRRNGHNEMDEPMFTQPLMYKQIRKQKPVLQKYAELLVSQGVVNQPEYEEEISKYDKICEEAFTRSKDEKILHIKHWLDSPWPGFFTLDGQPRSMTCPSTGLEEDVLFHIGKVASSVPVENFTIHGGLSRILKTRRELVTNRTVDWALAEYMAFGSLLKEGIHVRLSGQDVERGTFSHRHHVLHDQNVDKRTCIPMNHLWPNQAPYTVCNSSLSEYGVLGFELGFAMASPNALVLWEAQFGDFNNMAQCIIDQFICPGQAKWVRQNGIVLLLPHGMEGMGPEHSSARPERFLQMCNDDPDVLPDLQEENFDINQLYDCNWIVVNCSTPGNFFHVLRRQILLPFRKPLIVFTPKSLLRHPEARTSFDEMLPGTHFQRVIPENGPAAQDPHKVKRLLFCTGKVYYDLTRERKARNMEEEVAITRIEQLSPFPFDLLLKEAQKYPNAELAWCQEEHKNQGYYDYVKPRLRTTIDRAKPVWYAGRDPAAAPATGNKKTHLTELQRFLDTAFDLDAFKKFS | – | – | – | – | – | – | binds | binds weakly
2-oxoglutarate dehydrogenase complex subunit E3 (DLD), mouse (enzyme, UniProt O08749 36-509) ADQPIEADVTVIGSGPGGYVAAIKSAQLGFKTVCIEKNETLGGTCLNVGCIPSKALLNNSHYYHMAHGKDFASRGIEIPEVRLNLEKMMEQKHSAVKALTGGIAHLFKQNKVVHVNGFGKITGKNQVTATKADGSTQVIDTKNILVATGSEVTPFPGITIDEDTIVSSTGALSLKKVPEKLVVIGAGVIGVELGSVWQRLGADVTAVEFLGHVGGIGIDMEISKNFQRILQRQGFKFKLNTKVTGATKKSDGKIDVSVEAASGGKAEVITCDVLLVCIGRRPFTQNLGLEELGIELDPKGRIPVNNRFQTKIPNIYAIGDVVAGPMLAHKAEDEGIICVEGMAGGAVHIDYNCVPSVIYTHPEVAWVGKSEEQLKEEGIEFKIGKFPFAANSRAKTNADTDGMVKILGHKSTDRVLGAHILGPGAGEMVNEAALALEYGASCEDIARVCHAHPTLSEAFREANLAAAFGKPINF | – | – | – | – | – | – | binds | –
MRPS36 (KGD4), mouse (protein, UniProt Q9CQX8 1-102) MGSKMASATRVVQVVKPHAPLIKFPNRRDKPKLSASEALGSAALPSHSSAISQHSKGSTSPDLLMHQGPPDTAEIIKSLPQKYRRKPMSQEEMEFIQRGGPE | – | – | – | – | – | – | binds | binds
